Data: publication PMC11395145, “The Archetypal Gamma-Core Motif of Antimicrobial Cys-Rich Peptides Inhibits H^+-ATPases in Target Pathogens” (International Journal of Molecular Sciences, 2024)

The chains behind the UniProt entries cited, without tags or fusion partners. Where a name states a change or a piece, a line headed by the entry shows the natural chain unless it says otherwise.
UniProt P28877: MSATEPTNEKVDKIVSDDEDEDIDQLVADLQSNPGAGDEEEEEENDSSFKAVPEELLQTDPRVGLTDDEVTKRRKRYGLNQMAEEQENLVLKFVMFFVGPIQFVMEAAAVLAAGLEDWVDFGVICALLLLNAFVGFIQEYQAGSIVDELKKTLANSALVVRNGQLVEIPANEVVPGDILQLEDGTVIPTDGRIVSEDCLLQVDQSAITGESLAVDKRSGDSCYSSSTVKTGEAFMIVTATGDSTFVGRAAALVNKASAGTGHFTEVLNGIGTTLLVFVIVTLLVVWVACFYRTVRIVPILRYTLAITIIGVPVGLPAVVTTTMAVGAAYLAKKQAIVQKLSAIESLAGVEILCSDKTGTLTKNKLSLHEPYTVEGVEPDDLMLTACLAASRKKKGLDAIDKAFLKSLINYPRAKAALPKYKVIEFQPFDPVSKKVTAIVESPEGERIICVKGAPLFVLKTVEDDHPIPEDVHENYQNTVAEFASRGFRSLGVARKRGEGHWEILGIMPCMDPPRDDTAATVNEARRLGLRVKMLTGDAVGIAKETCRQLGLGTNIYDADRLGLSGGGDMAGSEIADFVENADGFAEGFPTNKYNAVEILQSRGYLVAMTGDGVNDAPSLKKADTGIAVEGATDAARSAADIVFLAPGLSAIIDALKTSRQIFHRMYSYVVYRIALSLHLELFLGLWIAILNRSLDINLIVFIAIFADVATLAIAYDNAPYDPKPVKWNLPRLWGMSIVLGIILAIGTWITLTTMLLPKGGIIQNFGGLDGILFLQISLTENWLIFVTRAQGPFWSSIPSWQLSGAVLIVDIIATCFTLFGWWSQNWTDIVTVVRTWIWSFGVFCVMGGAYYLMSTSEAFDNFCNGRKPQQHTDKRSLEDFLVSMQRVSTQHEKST

Experiments:
C. albicans cells [1] = experiment: Cell membrane permeability assay (propidium iodide, flow cytometry); assay type: cell-based, Candida albicans; settings: 90 min, 37 °C, range of concentrations, PI 9 μM
Protocol: (§1) To determine whether Kal-1 and Kdp15 exert a permeabilizing effect on fungal or bacterial membranes, the cellular influx of the fluorescent nucleic-acid-binding dye propidium iodide (PI) was assessed. As PI itself cannot permeate through an intact phospholipid bilayer, only permeabilized cells take up PI, resulting in DNA intercalation and fluorescence.
(§2) Flow cytometry was used to assess the ability of peptides to permeabilize plasma membranes of cells in incorporation of the DNA intercalating dye propidium iodide (PI). C. albicans or P. aeruginosa cells (10^6 cells/mL) in Tris buffer were incubated with two-fold serially diluted peptides for 90 min at 37 °C and subsequently reincubated with PI (9 μM, final concentration) for 5 min. The suspensions were centrifuged at 1100× g for 10 min and subsequently washed with Tris buffer to remove any unbound PI. The peptide Lfpep was used to disrupt the cytoplasmic membrane (positive control). Cell fluorescence was monitored using a Cytomics FC500 Flow Cytometer (Beckman Coulter Life Sciences, Indianapolis, IN, USA). The PI fluorescence was excited at a wavelength of 488 nm and emission was registered at 610 nm. For each treatment, 20,000 events were measured. Data were acquired and analyzed using CytExpert 2.1 software. Results were expressed as the percentage of PI-positive cells with respect to the unstained cells (control). […]

[2] = system: Pseudomonas aeruginosa 10145 (PAO1); experiment: Microbicidal (spread-plate cell viability) assay, pseudomonacidal activity; assay type: cell-based
Protocol: (§3) First, we tested the antimicrobial activity of Kal-1 and a shorter Kal-1-derived peptide (Kdp15), both containing the complete γ-core signature of human lactoferrin, against C. albicans and P. aeruginosa. Microbicidal (cidal) activity was determined after 90 min of incubation (37 °C; pH 7.4) with a range of concentrations of each hLf-derived peptide.
(§4) Figure 1 Cell viability and membrane permeabilization assays. C. albicans or P. aeruginosa (10^6 cells/mL) were incubated (90 min, 37 °C) with each peptide/protein at the indicated concentrations. Aliquots were plated on SDA or […], and colonies were counted after 24–48 h (C. albicans) or 24 h (P. aeruginosa). At each point, samples were stained with propidium iodide (PI) and intracellular PI incorporation, indicative of membrane permeabilization, was quantified by flow cytometry. The relative cell viability (blue lines) and cellular permeabilization (red lines) were calculated as the percentage of untreated cells. Human lactoferrin (hLf) and the peptide Lfpep were used as negative and positive controls of cellular permeabilization, respectively.
Microbial susceptibility to the peptides was determined in a spread-plate assay as described previously. Briefly, two-fold serially diluted peptides were incubated (37 °C) with approximately 10^6 cells/mL in Tris buffer (10 mM Tris-HCl, pH 7.4). After 90 min of incubation with the peptides, aliquots were removed and plated in duplicate on an appropriate agar plate for each species (SDA for C. albicans, TSA for P. aeruginosa). The plates were incubated for 24–48 h at 30 °C (C. albicans) or 24 h at 37 °C (P. aeruginosa) for enumeration. The cell viability values, expressed as colony forming units (CFUs), were determined relative to incubation without added peptides and represent the mean ± standard deviation (±SD) of at least three independent determinations. For inhibition assays, the cell suspensions were preincubated (15 min at 37 °C) with the corresponding inhibitors before the addition of peptides. […]

[3] = system: Candida albicans ATCC 10231; experiment: Microbicidal (spread-plate cell viability) assay, candidacidal activity; assay type: cell-based
Protocol: as §3, §4
Microbial susceptibility to the peptides was determined in a spread-plate assay as described previously. Briefly, two-fold serially diluted peptides were incubated (37 °C) with approximately 10^6 cells/mL in Tris buffer (10 mM Tris-HCl, pH 7.4). After 90 min of incubation with the peptides, aliquots were removed and plated in duplicate on an appropriate agar plate for each species (SDA for C. albicans, TSA for P. aeruginosa). The plates were incubated for 24–48 h at 30 °C (C. albicans) or 24 h at 37 °C (P. aeruginosa) for enumeration. The cell viability values, expressed as colony forming units (CFUs), were determined relative to incubation without added peptides and represent the mean ± standard deviation (±SD) of at least three independent determinations. For inhibition assays, the cell suspensions were preincubated (15 min at 37 °C) with the corresponding inhibitors before the addition of peptides. Water-insoluble inhibitors were prepared in DMSO, such that the final assay volume was ≤1%. Other specific experimental inhibition conditions are described where appropriate. The IC50 value is expressed as the concentration that caused 50% reduction in viable counts.

P. aeruginosa cells [4] = experiment: Oxygen consumption measurement (Clark-type electrode); assay type: cell-based, Pseudomonas aeruginosa; settings: 5 × 10^6 cells/mL, peptides at IC50, piericidin A 32 μM, at least 30 min, 25 °C
Protocol: (§5) Figure 3 Effect of cellular respiration on the microbicidal activity of hLf γ-core-containing peptides. (A,C) Oxygen consumption was measured in C. albicans and P. aeruginosa cellular suspensions in the absence (control) or the presence of kaliocin-1 (Kal-1), Kdp15, or human lactoferrin (hLf), and piericidin A (positive control). (B,D) Effect of cellular respiration on the microbicidal activity of hLf γ-core-containing peptides. Cells (10^6 cells/mL) were pre-incubated (15 min, 37 °C) with 32 μM piericidin A and incubated for 90 min at 37 °C with the peptides hLf or BM2. The cell viability was determined by means of the plate counting method. The results are the mean ± SD from duplicates of at least three independent experiments. * p < 0.05, ** p < 0.01, and *** p < 0.001 were used.
(§6) C. albicans or P. aeruginosa cells were grown to the mid-logarithmic phase, washed twice in Tris buffer, and resuspended in the same buffer, as described in [9, 10]. Briefly, cells (5 × 10^6 cells/mL) were pre-incubated for 15 min at 37 °C with the peptides (IC50). […] Oxygen consumption was measured using a Clark-type oxygen electrode (Dual digital-model 20, Rank Brothers Ltd., Cambridge, UK) in a closed jacketed chamber maintained at 25 °C. […] The viability of the cells was determined at 30 min by removing aliquots from the oxygen chambers and plating the subsequent dilutions on SDA or TSA plates.

C. albicans cells [5] = experiment: as above; assay type: cell-based, Candida albicans; settings: 5 × 10^6 cells/mL, peptides at IC50, piericidin A 32 μM, at least 30 min, 25 °C
Protocol: as §5, §6

P. aeruginosa cells [6] = experiment: Cell membrane permeability assay (propidium iodide, flow cytometry); assay type: cell-based, Pseudomonas aeruginosa; settings: 90 min, 37 °C
Protocol: as §1, §2

C. albicans cells [7] = experiment: Measurement of intracellular ATP (BacTiter-Glo); assay type: cell-based, Candida albicans; settings: C. albicans 10^6 cells/mL, candidacidal concentration, 90 min, 37 °C; BM2 0.25 μM
Protocol: Total ATP was measured by using the BacTiter-Glo^TM Microbial Cell Viability Assay (Promega Co., Madison, WI, USA) according to the manufacturer’s instructions. […] Aliquots (100 μL) were incubated (90 min at 37 °C) with kaliocin-1, Kdp15, or human lactoferrin and the BM2 peptide (positive control). One hundred microliters of incubation mix was transferred into a 96-well opaque white plate, mixed with an equal volume of the BacTiter-Glo reagent, and incubated for 15 min in the dark. The reagent used a thermostable luciferase to produce luminescence in an ATP-dependent manner. The emitted luminescence was detected by using a Varioskan Flash multimode reader (Thermo Scientific, Waltham, MA, USA) with a 10 s of shaking and 1 s integration time. A calibration curve was prepared for each experiment, with ATP standards ranging from 1 to 1000 nM. For assays performed in the presence of the BM2 peptide, samples were preincubated with 0.25 μM BM2 for 30 min at 37 °C. All the tests were performed in triplicate at least four times.

Pma1p H^+-ATPase = Pma1p H^+-ATPase (Candida albicans, UniProt P28877); settings: starved C. albicans 10^7 cells/mL in 50 mM KCl, pre-incubated with peptide 2 × IC50, 2.5 mM glucose; control ~1.3 pH units
[8] = Tris buffer with 50 mM KCl vs without
[9] = cells pre-incubated 15 min, 37 °C with 32 μM piericidin A, then 90 min with peptide

FFSASCVPGADKGQFPNLCRLCAGTGENKCA [Kaliocin-1]
PI fluorescent cells (plasma membrane permeabilization), C. albicans (C. albicans cells [1]): not significantly increased | IC50 ([2]; 90 min, 37 °C, 10 mM Tris-HCl pH 7.4, 10^6 cells/mL, CFU plating, read-out: IC50 (concentration that caused 50% reduction in viable counts) against P. aeruginosa): 7.5 µM | effect of high external K^+ on pseudomonacidal activity [2, 8]: seemed to protect | effect of respiration inhibition (piericidin A) on pseudomonacidal activity [2, 9]: less susceptible | IC50 ([3]; 90 min, 37 °C, 10 mM Tris-HCl pH 7.4, 10^6 cells/mL, CFU plating, estimated, read-out: IC50 (concentration that caused 50% reduction in viable counts) against C. albicans): 40 µM | effect of high external K^+ on candidacidal activity [3, 8]: seemed to protect | effect of mitochondrial ATP synthase inhibition (oligomycin A) on candidacidal activity ([3]; cells pre-incubated 15 min, 37 °C with 16 μg/mL oligomycin A): less susceptible | effect of respiration inhibition (piericidin A) on candidacidal activity [3, 9]: less susceptible | effect of Tok1p K^+ channel block (TEA^+) on candidacidal activity ([3]; cells pre-incubated 15 min with 10 mM TEA^+): less susceptible | IC50 against C. albicans relative to IC50 of native hLf (fold greater) ([3]; vs hLf IC50 3 μM): approximately 13 fold | oxygen consumption of P. aeruginosa in presence of the substance (P. aeruginosa cells [4]): equal to that of untreated (control) cells | oxygen consumption of C. albicans in presence of the substance (C. albicans cells [5]): equal to that of untreated (control) cells | concentration giving dose-dependent PI uptake (membrane permeabilization) in P. aeruginosa (P. aeruginosa cells [6]): ≥ 25 µM | increment in intracellular ATP (iATP) level compared to untreated control (C. albicans cells [7]): ~ 8 fold | decrease of external pH after 20 min (glucose-induced acidification) (Pma1p H^+-ATPase): approximately 0.5 pH units
